According to paper PMC7994375:
No constants are given. Whether binding was seen depends on the method and setting. Binding seen in cells or lysates may run through a third protein. Some binding calls cover weakened binding; strength is not graded here.

By UniProt entry, the sequences of proteins in these tests, tags left out. Where a name states a change or a piece, a line headed by the entry shows the natural chain unless it says otherwise.
UniProt P32245: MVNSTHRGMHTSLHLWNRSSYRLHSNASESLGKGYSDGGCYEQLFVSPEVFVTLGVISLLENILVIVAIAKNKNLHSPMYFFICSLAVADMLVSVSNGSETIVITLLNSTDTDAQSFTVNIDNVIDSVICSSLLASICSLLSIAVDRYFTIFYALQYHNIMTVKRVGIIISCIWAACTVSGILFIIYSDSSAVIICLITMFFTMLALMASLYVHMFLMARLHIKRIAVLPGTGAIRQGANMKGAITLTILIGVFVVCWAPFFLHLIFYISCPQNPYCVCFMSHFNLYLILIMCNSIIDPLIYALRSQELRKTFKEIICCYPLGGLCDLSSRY
UniProt P49407: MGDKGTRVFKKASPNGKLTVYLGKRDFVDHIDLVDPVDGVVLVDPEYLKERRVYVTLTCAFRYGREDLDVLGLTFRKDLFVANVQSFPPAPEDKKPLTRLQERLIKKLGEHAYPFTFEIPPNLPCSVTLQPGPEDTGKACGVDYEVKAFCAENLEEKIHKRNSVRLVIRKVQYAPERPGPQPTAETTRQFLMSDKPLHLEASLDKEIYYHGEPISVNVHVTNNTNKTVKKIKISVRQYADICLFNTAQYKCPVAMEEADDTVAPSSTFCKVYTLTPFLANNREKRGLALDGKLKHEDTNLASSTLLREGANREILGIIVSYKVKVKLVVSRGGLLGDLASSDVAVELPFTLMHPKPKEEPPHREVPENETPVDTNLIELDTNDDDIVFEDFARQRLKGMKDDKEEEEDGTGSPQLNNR

Molecular target: Human Melanocortin-4 Receptor (MC4R) WT, NanoBiT constructs (MC4R WT-LgBiT; MC4R WT-SmBiT) (human) (UniProt P32245)
Experiment: split reporter; NanoBiT homodimerisation in live HEK293 cells: MC4R WT-SmBiT with MC4R WT-LgBiT or MC4R mutant-LgBiT, 50 ng/well each; run as the coupling assay; AUC against HaloTag-SmBiT baseline, WT:WT = 100%

Substance | binding
Human MC4R I186V-C-LgBiT (from UniProt P32245 1-332) (receptor) | binds
Human MC4R I251L-C-LgBiT (from UniProt P32245 1-332) (receptor) | binds
Human MC4R M200V-C-LgBiT (from UniProt P32245 1-332) (receptor) | binds
Human Melanocortin-4 Receptor (MC4R) WT, NanoBiT constructs (MC4R WT-LgBiT; MC4R WT-SmBiT) (from UniProt P32245 1-332) | binds

The next lines start with the values.

binding | Substance
binds | Human MC4R R236C-C-LgBiT (from UniProt P32245 1-332) (receptor)
binds | Human MC4R R305S-C-LgBiT (from UniProt P32245 1-332) (receptor)
binds | Human MC4R S191T-C-LgBiT (from UniProt P32245 1-332) (receptor)
binds | Human MC4R S295P-C-LgBiT (from UniProt P32245 1-332) (receptor)
binds | Human MC4R T53I-C-LgBiT (from UniProt P32245 1-332) (receptor)

Molecular target: Human Melanocortin-4 Receptor (MC4R) WT, NanoBiT constructs (MC4R WT-LgBiT; MC4R WT-SmBiT) (human) (UniProt P32245)
Experiment: split reporter; stable HEK293 line with MC4R WT-LgBiT and SmBiT-β-arrestin-2 (BiBiT vector); MSH-related peptides and other ligands at 0.1 nM, 10 nM and 1 uM; AUC as % of α-MSH activity

binding | Substance
binds | Human N-SmBiT-β-arrestin-2 (from UniProt P32121 1-409)

Molecular target: Human Melanocortin-4 Receptor (MC4R) WT, NanoBiT constructs (MC4R WT-LgBiT; MC4R WT-SmBiT) (human) (UniProt P32245)
Experiment: split reporter; NanoBiT in live HEK293 cells: MC4R-LgBiT (WT or mutant) with SmBiT-β-arrestin-1, SmBiT-β-arrestin-2 or Gαs-SmBiT, 50 ng/well each; 37°C, Opti-MEM; stimulated with 1 uM NDP-α-MSH; AUC over 45 min against HaloTag-SmBiT baseline, WT = 100%

binding | Substance
binds | Human N-SmBiT-β-arrestin-1 (from UniProt P49407 1-418)
binds | Human N-SmBiT-β-arrestin-2 (from UniProt P32121 1-409)
